3 molecules from article PMC11371196 can be followed below.

These are yes or no findings as the source states them, for the method shown. In cells and extracts the contact can be indirect. A yes stands for co-enrichment or nearness to the bait. Other partners may have been found. Sequences can lack the tags named with a protein.

Test in all cases: proximity labelling; TurboID fusions under ProUBQ10 in 14-day-old Arabidopsis seedlings, 50 μM biotin for 3 h at room temperature; biotinylated proteins enriched on streptavidin beads, TMT LC-MS/MS; compared with wild-type Col-0 and between baits
Assay [1] addresses T1, PDLP5-TurboID-3xFlag (Arabidopsis thaliana) (UniProt Q8GUJ2).
T1 sequence: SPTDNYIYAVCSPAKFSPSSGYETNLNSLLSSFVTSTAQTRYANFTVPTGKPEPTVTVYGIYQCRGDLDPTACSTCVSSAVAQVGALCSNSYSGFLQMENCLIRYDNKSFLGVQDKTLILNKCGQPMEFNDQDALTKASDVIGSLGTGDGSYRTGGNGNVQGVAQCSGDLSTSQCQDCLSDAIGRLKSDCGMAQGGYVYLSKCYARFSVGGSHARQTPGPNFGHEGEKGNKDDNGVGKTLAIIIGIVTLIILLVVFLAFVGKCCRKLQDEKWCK

Assay [2] has as its target T2, PDLP6-TurboID-3xFlag (Arabidopsis thaliana) (UniProt Q9ZU94).
T2 sequence: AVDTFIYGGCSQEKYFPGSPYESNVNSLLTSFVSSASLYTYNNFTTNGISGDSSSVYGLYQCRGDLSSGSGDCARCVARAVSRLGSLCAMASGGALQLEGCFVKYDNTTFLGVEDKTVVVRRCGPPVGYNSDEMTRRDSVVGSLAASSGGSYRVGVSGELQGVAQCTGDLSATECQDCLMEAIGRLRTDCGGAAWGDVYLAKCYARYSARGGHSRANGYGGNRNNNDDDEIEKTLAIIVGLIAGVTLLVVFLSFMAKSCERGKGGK

Assay [3] concerns the target T3, 3xFlag-TurboID-MCTP3 (Arabidopsis thaliana) (UniProt Q9M2R0).
T3 sequence: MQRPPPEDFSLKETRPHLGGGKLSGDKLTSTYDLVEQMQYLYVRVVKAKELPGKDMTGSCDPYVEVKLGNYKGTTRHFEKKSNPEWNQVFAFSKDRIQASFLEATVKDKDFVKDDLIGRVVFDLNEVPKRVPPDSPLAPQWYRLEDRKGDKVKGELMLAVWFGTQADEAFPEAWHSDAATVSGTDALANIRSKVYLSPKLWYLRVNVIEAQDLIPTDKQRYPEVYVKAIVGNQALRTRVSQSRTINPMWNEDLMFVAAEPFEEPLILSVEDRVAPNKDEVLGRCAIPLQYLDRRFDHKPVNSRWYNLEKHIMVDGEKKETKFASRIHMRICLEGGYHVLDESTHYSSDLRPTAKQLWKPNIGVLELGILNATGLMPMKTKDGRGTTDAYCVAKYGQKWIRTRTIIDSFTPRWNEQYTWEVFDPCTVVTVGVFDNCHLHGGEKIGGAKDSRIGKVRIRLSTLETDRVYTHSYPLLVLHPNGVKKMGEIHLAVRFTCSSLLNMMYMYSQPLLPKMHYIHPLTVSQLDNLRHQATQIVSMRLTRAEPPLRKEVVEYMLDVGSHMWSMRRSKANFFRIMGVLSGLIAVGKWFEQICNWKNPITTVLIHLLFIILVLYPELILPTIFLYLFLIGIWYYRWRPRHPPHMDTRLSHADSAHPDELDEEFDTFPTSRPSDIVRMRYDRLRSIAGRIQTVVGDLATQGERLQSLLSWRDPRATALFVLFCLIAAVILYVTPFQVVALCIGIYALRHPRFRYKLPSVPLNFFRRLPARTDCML

B1: CLV1 (receptor, UniProt Q9SYQ8 25-980)
chain: YTDMEVLLNLKSSMIGPKGHGLHDWIHSSSPDAHCSFSGVSCDDDARVISLNVSFTPLFGTISPEIGMLTHLVNLTLAANNFTGELPLEMKSLTSLKVLNISNNGNLTGTFPGEILKAMVDLEVLDTYNNNFNGKLPPEMSELKKLKYLSFGGNFFSGEIPESYGDIQSLEYLGLNGAGLSGKSPAFLSRLKNLREMYIGYYNSYTGGVPPEFGGLTKLEILDMASCTLTGEIPTSLSNLKHLHTLFLHINNLTGHIPPELSGLVSLKSLDLSINQLTGEIPQSFINLGNITLINLFRNNLYGQIPEAIGELPKLEVFEVWENNFTLQLPANLGRNGNLIKLDVSDNHLTGLIPKDLCRGEKLEMLILSNNFFFGPIPEELGKCKSLTKIRIVKNLLNGTVPAGLFNLPLVTIIELTDNFFSGELPVTMSGDVLDQIYLSNNWFSGEIPPAIGNFPNLQTLFLDRNRFRGNIPREIFELKHLSRINTSANNITGGIPDSISRCSTLISVDLSRNRINGEIPKGINNVKNLGTLNISGNQLTGSIPTGIGNMTSLTTLDLSFNDLSGRVPLGGQFLVFNETSFAGNTYLCLPHRVSCPTRPGQTSDHNHTALFSPSRIVITVIAAITGLILISVAIRQMNKKKNQKSLAWKLTAFQKLDFKSEDVLECLKEENIIGKGGAGIVYRGSMPNNVDVAIKRLVGRGTGRSDHGFTAEIQTLGRIRHRHIVRLLGYVANKDTNLLLYEYMPNGSLGELLHGSKGGHLQWETRHRVAVEAAKGLCYLHHDCSPLILHRDVKSNNILLDSDFEAHVADFGLAKFLVDGAASECMSSIAGSYGYIAPEYAYTLKVDEKSDVYSFGVVLLELIAGKKPVGEFGEGVDIVRWVRNTEEEITQPSDAAIVVAIVDPRLTGYPLTSVIHVFKIAMMCVEEEAAARPTMREVVHMLTNPPKSVANLIAF
For the molecule B1, the binding result in assay [1] and in assay [2] was “binds” throughout.

B2: RTNLB6 (protein, UniProt Q6DBN4 1-253)
chain: MAEELEKSMHKEESLMEKIADKIHDHDSSSSSDSEHEKPESPSALKAKIYRLFGREKPVHKVLGGGLPADVFLWRDKKLSASVLGVATAIWVLFELVEYHFLSLVCHILIFALAALFLLSNAHAFMNKTPPKIPEIHIKEEHFLMIVSALRNELNQAFVILRSIALGRDLKKFLMVVFGLWIISVVGNWFNFLTLVYICFVVLHTVPMLYEKHEDKVDPVAEKTLKELKKHYMVFDEKVLSKLPVASLKAKLG
Regarding B2, the binding entry in assay [3] is “binds”.

B3: HVA22C (protein, UniProt Q9S784 1-184)
chain: MPSNSGDDNVLQVLIKNFDVLALPLVTLVYPLYASVKAIETRSLPEDEQWLTYWVLYALISLFELTFSKPLEWFPIWPYMKLFGICWLVLPQFNGAEHIYKHFIRPFYRDPQRATTKIWYVPHKKFNFFPKRDDDDILTAAEKYMEQHGTEAFERMIVKKDSYERGRSSRGINNHMIFDDDYRY
Take B3: in assay [3], the binding result was “binds”.
